Test results taken from publication PMC6619347.

Chains of the proteins cited; added tags and fusions are not shown.
UniProt P35222: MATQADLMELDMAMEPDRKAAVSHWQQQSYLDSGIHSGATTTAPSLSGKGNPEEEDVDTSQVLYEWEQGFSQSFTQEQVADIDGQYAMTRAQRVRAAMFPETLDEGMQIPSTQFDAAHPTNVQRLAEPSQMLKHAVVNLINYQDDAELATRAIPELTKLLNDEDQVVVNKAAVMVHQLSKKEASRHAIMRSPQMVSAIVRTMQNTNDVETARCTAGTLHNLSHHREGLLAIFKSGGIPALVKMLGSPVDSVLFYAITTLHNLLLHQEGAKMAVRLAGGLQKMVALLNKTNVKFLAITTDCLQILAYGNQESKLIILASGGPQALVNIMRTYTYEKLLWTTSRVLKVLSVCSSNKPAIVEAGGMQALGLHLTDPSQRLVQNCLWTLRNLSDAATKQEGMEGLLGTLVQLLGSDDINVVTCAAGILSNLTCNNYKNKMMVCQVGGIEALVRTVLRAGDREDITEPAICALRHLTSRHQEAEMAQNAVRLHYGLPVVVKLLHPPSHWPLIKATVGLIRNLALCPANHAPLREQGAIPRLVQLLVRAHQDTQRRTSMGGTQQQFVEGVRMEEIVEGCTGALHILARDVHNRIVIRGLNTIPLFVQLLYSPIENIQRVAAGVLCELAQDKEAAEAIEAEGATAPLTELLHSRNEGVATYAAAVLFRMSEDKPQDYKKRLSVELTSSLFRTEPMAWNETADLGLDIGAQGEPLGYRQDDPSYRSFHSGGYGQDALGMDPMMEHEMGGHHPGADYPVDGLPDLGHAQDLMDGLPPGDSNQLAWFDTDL

Biological target: T1, DDK‐FBXO16 (human) (UniProt Q8IX29)
T1 sequence: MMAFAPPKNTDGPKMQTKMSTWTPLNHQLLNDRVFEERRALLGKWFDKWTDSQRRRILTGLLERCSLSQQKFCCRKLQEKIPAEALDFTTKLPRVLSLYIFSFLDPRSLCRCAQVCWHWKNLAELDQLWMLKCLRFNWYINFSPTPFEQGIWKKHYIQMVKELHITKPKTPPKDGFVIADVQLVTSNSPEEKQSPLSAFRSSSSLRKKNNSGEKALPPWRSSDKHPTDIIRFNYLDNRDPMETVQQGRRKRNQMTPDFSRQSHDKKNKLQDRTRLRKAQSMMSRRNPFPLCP
Experiment: affinity purification with mass spectrometry; MCF7 cells expressing vector or DDK‐FBXO16, 5 μM MG132 for 6 h; anti‐DDK immunoprecipitation, elution with 8 M urea and 0.5 M Tris pH 7.4, LC–MS/MS (Orbitrap fusion)

Substance: β‐catenin (endogenous) (from UniProt P35222 1-781)
- binding: binds

No constants are given. Whether binding was seen depends on the method and setting. Binding seen in cells or lysates may run through a third protein. These calls come from enrichment with a bait or labelling near it, and not all partners need be listed.
